Data from the supplement of paper PMC4635364.
Counter-ions that a name gives are not always drawn. The list shows a part of the results. Single values are uncertain here, since repeats match poorly.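 Cells: ReNCell VM human fetal ventral-midbrain neural progenitors, differentiated mitogen-free. Blinded raters compared doublecortin-stained (early neurons) or tyrosine hydroxylase-stained (dopaminergic neurons) images with untreated wells, where 0 means no change. After repeats and both raters were averaged, compounds scoring 2 or above became hits for retesting.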

System: ReNCell VM
Test: dopaminergic neuron differentiation score (TH+ cell fraction vs untreated, manual image score) (score (0 to 3)); higher = more TH+ dopaminergic neuron differentiation
Settings: library: LOPAC; 2 uM; 4 weeks; BDNF 10 ng/ml + GDNF 10 ng/ml

Row | SMILES | dopaminergic neuron differentiation score
1 | C[C@H]1O[C@@H](C[N+](C)(C)C)CS1 | inactive: 0
2 | CC(C)C[C@H]1C(=O)N2CCC[C@H]2[C@]2(O)O[C@](NC(=O)[C@@H]3C=C4c5cccc6[nH]c(Br)c(c56)C[C@H]4N(C)C3)(C(C)C)C(=O)N12 [(+)-Bromocriptine methanesulfonate] | inactive: 0
3 | C[C@]12CC[C@@H](O)C[C@@H]1CC[C@@H]1[C@@H]2CC[C@]2(C)[C@@H](C(=O)CO)CC[C@@H]12 [3-alpha,21-Dihydroxy-5-alpha-pregnan-20-one] | inactive: 0
4 | NCCc1ccc(O)cc1 [4-Hydroxyphenethylamine hydrochloride] | inactive: 0
5 | Cc1[nH]c2ccc(O)cc2c1CCN [2-Methyl-5-hydroxytryptamine maleate] | inactive: 0
6 | NC1CCc2cc(O)c(O)cc2C1 (centres undefined) [6,7-ADTN hydrobromide] | inactive: 0
7 | O=[N+]([O-])c1ccc2nc(N3CCNCC3)ccc2c1 [Quipazine, 6-nitro-, maleate] | inactive: 0

Same assay, conditions: library: Phytochemical; 2 uM; 4 weeks; BDNF 10 ng/ml + GDNF 10 ng/ml

Row | SMILES | dopaminergic neuron differentiation score
8 | COc1cc2c(cc1O)C[C@H]1c3c(cc(O)c(OC)c3-2)CCN1C [Boldine] | inactive: 0
9 | CCN1C[C@]2(C)CC[C@H](O)[C@]34C1[C@@H](C[C@H]23)[C@@]1(O)C[C@H](OC)[C@H]2C[C@@H]4[C@@H]1[C@H]2O [Karakoline] | inactive: 0
10 | COc1ccc(CC2c3cc(OC)c(OC)cc3CCN2C)cc1OC (racemic) [Laudanosine (R,S)] | inactive: 0
11 | CS(=N)(=O)CC[C@H](N)C(=O)O (some centres undefined) [Methionine sulfoximine (L)] | inactive: 0
12 | O=c1cccc2n1C[C@@H]1CNC[C@H]2C1 [Cytisine nitrate hydrate] | inactive: 0
13 | C[C@@H](CO)NC(=O)[C@@H]1C=C2c3cccc4[nH]cc(c34)C[C@H]2N(C)C1 [Ergobasine] | inactive: 0
14 | c1ccc2c(c1)[nH]c1cnccc12 [Norharman] | inactive: 0

Same assay, conditions: library: Prestwick; 2 uM; 4 weeks; BDNF 10 ng/ml + GDNF 10 ng/ml

Row | SMILES | dopaminergic neuron differentiation score
15 | CC(=O)O[C@H]1C[C@H](O[C@H]2[C@@H](O)C[C@H](O[C@H]3[C@@H](O)C[C@H](O[C@H]4CC[C@@]5(C)[C@H](CC[C@@H]6[C@@H]5C[C@@H](O)[C@]5(C)[C@@H](C7=CC(=O)OC7)CC[C@]65O)C4)O[C@@H]3C)O[C@@H]2C)O[C@H](C)[C@H]1O[C@@H]1O[C@H](CO)[C@@H](O)[C@H](O)[C@H]1O [Lanatoside C] | inactive: 0
16 | CCCN1C[C@H](CSC)C[C@@H]2c3cccc4[nH]cc(c34)C[C@H]21 [Pergolide mesylate] | inactive: 0
17 | CC(O)(CS(=O)(=O)c1ccc(F)cc1)C(=O)Nc1ccc(C#N)c(C(F)(F)F)c1 (centres undefined) [Bicalutamide] | inactive: 0
18 | C=C1CC[C@@]2(O)[C@H]3Cc4ccc(O)c5c4[C@@]2(CCN3CC2CC2)[C@H]1O5 [Nalmefene hydrochloride] | inactive: 0

Same assay, conditions: library: Spectrum; 2 uM; 4 weeks; BDNF 10 ng/ml + GDNF 10 ng/ml

Row | SMILES | dopaminergic neuron differentiation score
19 | CCCCc1ccc(C(=O)O)nc1 | inactive: 0
20 | COC(=O)C1=CO[C@@H](C)[C@H]2CN3CC[C@]4(C(=O)Nc5ccccc54)[C@@H]3C[C@H]12 | inactive: 0
21 | CN[C@@H]1[C@@H](O)[C@@H](O[C@@H]2[C@@H](O)[C@H](O[C@H]3O[C@H](CN)CC[C@H]3N)[C@@H](N)C[C@H]2N)OC[C@]1(C)O.CN[C@@H]1[C@@H](O)[C@@H](O[C@@H]2[C@@H](O)[C@H](O[C@H]3O[C@H]([C@@H](C)N)CC[C@H]3N)[C@@H](N)C[C@H]2N)OC[C@]1(C)O.CN[C@@H]1[C@@H](O)[C@@H](O[C@@H]2[C@@H](O)[C@H](O[C@H]3O[C@H]([C@@H](C)NC)CC[C@H]3N)[C@@H](N)C[C@H]2N)OC[C@]1(C)O | inactive: 0
22 | C=CCC1(C(C)CCC)C(=O)NC(=S)NC1=O (centres undefined) | inactive: 0
23 | COc1ccc2c(c1O)-c1c(OC)c(OC)cc3c1[C@H](C2)N(C)CC3 | inactive: 0
24 | C=C/C=C\CC1=C(C)[C@@H](OC(=O)[C@@H]2[C@@H](/C=C(\C)C(=O)OC)C2(C)C)CC1=O.C=C/C=C\CC1=C(C)[C@@H](OC(=O)[C@@H]2[C@@H](C=C(C)C)C2(C)C)CC1=O | inactive: 0
25 | C=CCN1CC[C@]23c4c5ccc(O)c4O[C@H]2C(=O)CC[C@@]3(O)[C@H]1C5 | inactive: 0
26 | CCOc1cc(C=O)ccc1O | inactive: 0
27 | O=C1C=C2C(=CCOC2O)O1 (centres undefined) | inactive: 0
28 | CC[C@H]1[C@@H]2C[C@H]3[C@@H]4N(C)c5ccccc5[C@]45C[C@@H]([C@@H]2[C@H]5O)N3[C@@H]1O | inactive: 0
29 | c1ccc2c(c1)[nH]c1cnccc12 | inactive: 0
30 | O=[N+]([O-])OCC(CO[N+](=O)[O-])O[N+](=O)[O-] | inactive: 0
31 | CN1CCc2cc3c(cc2[C@H]1[C@@H]1OC(=O)c2c1ccc1c2OCO1)OCO3 | inactive: 0
32 | O=c1ccc2c(O)c3ccoc3cc2o1 | inactive: 0
33 | CCOP(=S)(OCC)Oc1ccc2c(C)c(Cl)c(=O)oc2c1 | inactive: 0
34 | CC(=O)OC1CCC23C(=O)OC45CCC(C6=CC(=O)OC6)C4(C)CCC2C5CCC3(O)C1 (centres undefined) | inactive: 0
